Measurements from the supplement of paper PMC3682954.
Values joined by “and” are separate entries in the source; they are usually repeats but may differ in a detail not shown here. Equal entries are not always repeated. Structures can show the parent of a compound that is named as a salt. ± gives the standard deviation of the averaged measurements. The list shows a part of the results. Many values rest on one well or one pass, so single values are uncertain.

Tested on: RAW 264.7
Experiment: HMGB1-induced TNF-alpha production relative to HMGB1-stimulated control; higher = more TNF-alpha secretion (less inhibition)
Conditions: stimulus: HMGB1 5 ug/ml, 18 h
[1] = compound concentration: 1 ug/ml

Row | Compound | HMGB1-induced TNF-alpha production (compound concentration: 3 uM) | HMGB1-induced TNF-alpha production [1] [%]
1 | N[C@@H](Cc1c[nH]c2ccc(O)cc12)C(=O)O [5-Hydroxy-L-tryptophan] | 96.6% | 
2 | N[C@@H](Cc1c[nH]c2ccc(O)cc12)C(=O)O [Oxitriptan; L-5-Hydroxytryptophan;] |  | 85.5
3 | CCCCCCCCCCCCCCCC(=O)OC[C@@H](NC(=O)C(Cl)Cl)[C@H](O)c1ccc([N+](=O)[O-])cc1 | 84% | 
4 | CC(Cc1ccccc1)(NC(=O)CN)c1ccccc1 (racemic) | 101% | 
5 | COc1cc2nc(N(C)CCCNC(=O)C3CCCO3)nc(N)c2cc1OC (centres undefined) | 114% and 105% | 
6 | COc1cc2nc(N(C)CCCNC(=O)C3CCCO3)nc(N)c2cc1OC (centres undefined) [Alfuzosin hydrochloride] | 87.9 ± 2.6% | 
7 | Clc1ccc(Cn2c(CN3CCCC3)nc3ccccc32)cc1 | 80.6% | 
8 | Clc1ccc(Cn2c(CN3CCCC3)nc3ccccc32)cc1 [Clemizole hydrochloride] | 70.3 ± 3.8% | 
9 | O=C(O)/C=C/c1ccc(O)c(O)c1 [Caffeic acid] | 117% | 77.6
10 | O=C(O)/C=C/c1ccc(O)c(O)c1 [Caffeic Acid] | 80.1% | 
11 | NCCCC(O)(P(=O)(O)O)P(=O)(O)O | 93.3 ± 5.2% | 
12 | NCCCC(O)(P(=O)(O)O)P(=O)(O)O [Alendronate sodium] | 103% | 
13 | NCCCC(O)(P(=O)(O)O)P(=O)(O)O [Alendronate] | 98.8% | 
14 | CNC[C@H](O)[C@@H](O)[C@H](O)[C@H](O)CO [Meglumine] | 106.1 ± 0.43% | 
15 | Nc1ccc(S(=O)(=O)Nc2cnc3ccccc3n2)cc1 [Sulfaquinoxaline sodium salt] | 98.5% | 
16 | Nc1ccc(S(=O)(=O)Nc2cnc3ccccc3n2)cc1 | 79.5% | 
17 | COC(=O)N[C@H](C(=O)N[C@@H](Cc1ccccc1)[C@@H](O)CN(Cc1ccc(-c2ccccn2)cc1)NC(=O)[C@@H](NC(=O)OC)C(C)(C)C)C(C)(C)C [Atazanavir] | 94.4% | 
18 | N.N.O=C([O-])C[O-].[Pt+2] [Nedaplatin] | 116% | 
19 | CCCCCCCCCC[Si](C)(C)CCC(=O)NC(Cc1ccc(C)cc1)c1ccccc1 (centres undefined) [Sandoz 58-035] | 99.3% | 

Row | Compound | HMGB1-induced TNF-alpha production (compound concentration: 3 uM) | HMGB1-induced TNF-alpha production [1] [%]
20 | OC[C@H]1O[C@@H](n2cnc3c(NCc4ccccc4)ncnc32)[C@H](O)[C@@H]1O [6-Benzylaminopurine riboside] |  | 77.5
21 | COc1ccc(C[C@H](N)C(=O)N[C@H]2[C@@H](O)[C@H](n3cnc4c(N(C)C)ncnc43)O[C@@H]2CO)cc1 | 84.6% | 
22 | COc1ccc(C[C@H](N)C(=O)N[C@H]2[C@@H](O)[C@H](n3cnc4c(N(C)C)ncnc43)O[C@@H]2CO)cc1 [Puromycin] | 108% | 
23 | CCCCC/C=C/CCC(=O)N[C@H]1[C@H](Oc2c3cc4cc2Oc2ccc(cc2Cl)[C@@H](O[C@@H]2O[C@H](CO)[C@@H](O)[C@H](O)[C@H]2NC(C)=O)[C@@H]2NC(=O)[C@H](NC(=O)[C@@H]4NC(=O)[C@H]4NC(=O)C(Cc5ccc(c(Cl)c5)O3)NC(=O)[C@H](N)c3ccc(O)c(c3)Oc3cc(O)cc4c3)c3ccc(O)c(c3)-c3c(OC4O[C@H](CO)[C@@H](O)[C@H](O)[C@@H]4O)cc(O)cc3[C@@H](C(=O)O)NC2=O)O[C@H](CO)[C@@H](O)[C@@H]1O (some centres undefined) [TEICOPLANIN [A(2-1) shown]] | 101% | 
24 | [O-][n+]1cccc(CO)c1 | 91.1% | 
25 | COCc1nc2c([nH]1)c(=O)n(C)c(=O)n2CC(C)C [8-Methoxymethyl-3-isobutyl-1-methylxanthine] | 106% | 
26 | C[C@H]1NC(=O)NC1=O [Methylhydantoin-5-(D)] | 110% | 
27 | Cc1ccnc(NS(=O)(=O)c2ccc(N)cc2)n1 [Sulfamerazine] | 106% | 
28 | Cc1ccnc(NS(=O)(=O)c2ccc(N)cc2)n1 | 93.5% | 
29 | NC(=O)OCC(COC(N)=O)c1ccccc1 [Felbamate] | 89.8 ± 10% | 
30 | CCC[S+]([O-])c1ccc2[nH]c(NC(=O)OC)nc2c1 (centres undefined) [Ricobendazole] | 86.2% | 
31 | O=c1c(O)c(-c2ccccc2)oc2cccc(O)c12 [3,5-Dihydroxyflavone] |  | 49.4
32 | CCCCS(=N)(=O)CCC(N)C(=O)O (racemic) [DL-Buthionine-[S,R]-sulfoximine] | 103% | 
33 | N=C(N)NCc1cccc(I)c1 [Iobenguane sulfate] | 78.6% | 
34 | CC(C)n1c(/C=C/C(O)CC(O)CC(=O)O)c(-c2ccc(F)cc2)c2ccccc21 (centres undefined) [Fluvastatin] | 168% | 
35 | CC(C)n1c(/C=C/C(O)CC(O)CC(=O)O)c(-c2ccc(F)cc2)c2ccccc21 (centres undefined) [Fluvastatin sodium salt] | 162% | 
36 | CC(C)n1c(/C=C/C(O)CC(O)CC(=O)O)c(-c2ccc(F)cc2)c2ccccc21 (centres undefined) | 127% | 
37 | O=c1ccn([C@@H]2O[C@H](CO)[C@@H](O)[C@H]2O)c(=O)[nH]1 [Uridine;  1-beta-D-Ribofuranosyluracil] |  | 69.6
38 | CC(C)(C)c1ccc(C(=O)CCCN2CCC(OC(c3ccccc3)c3ccccc3)CC2)cc1 [Ebastine] | 82.6% | 
